Test results published in patent publication US8686044B2, “Amide derivative, pest control agent containing the amide derivative, and use of the amide derivative” (Mitsui Chemicals Agro, Inc., priority 2008, dated 2014).
Some results were stated once for a whole list of compounds, not compound by compound.

test system: Culex pipiens molestus; assay: Pesticidal test against Culex pipiens molestus (petri dish dry film); format: in vivo; conditions: concentration 1000 ppm; female adults; examined after 1 day of treatment, 25° C.

Compound | pesticidal rate
CN(C(=O)c1ccccc1)c1cccc(C(=O)Nc2c(I)cc(C(F)(C(F)(F)F)C(F)(F)F)cc2C(F)(F)F)c1F [7-1730] | ≥ 70%
CN(C(=O)c1ccc(F)cc1)c1cccc(C(=O)Nc2c(Br)cc(C(F)(C(F)(F)F)C(F)(F)F)cc2C(F)(F)F)c1F [7-1577] | ≥ 70%
CN(C(=O)c1cccc(F)c1)c1cccc(C(=O)Nc2c(I)cc(C(F)(C(F)(F)F)C(F)(F)F)cc2C(F)(F)F)c1F [7-1732, 2-fluoro-3-(3-fluoro-N-methylbenzamide)-N-(2-iodo-4-(heptafluoropropan-2-yl)-6-(trifluoromethyl)phenyl)benzamide] | ≥ 70%
CN(C(=O)c1ccccc1)c1cccc(C(=O)Nc2c(I)cc(C(F)(C(F)(F)F)C(F)(F)F)cc2C(F)(F)F)c1 [7-424] | ≥ 70%
CN(C(=O)c1ccccc1)c1cccc(C(=O)Nc2c(Br)cc(C(F)(C(F)(F)F)C(F)(F)F)cc2C(F)(F)F)c1F [7-1574, N-(2-bromo-4-(perfluoropropan-2-yl)-6-(trifluoromethyl)phenyl)-2-fluoro-3-(N-methylbenzamide)benzamide] | ≥ 70%
CN(C(=O)c1ccc(F)cc1)c1cccc(C(=O)Nc2c(I)cc(C(F)(C(F)(F)F)C(F)(F)F)cc2C(F)(F)F)c1F [7-1733, 2-fluoro-3-(4-fluoro-N-methylbenzamide)-N-(2-iodo-4-(perfluoropropan-2-yl)-6-(trifluoromethyl)phenyl)benzamide] | ≥ 70%
